# The supplement of paper PMC12823440, “Inhibitors supercharge kinase turnover through native proteolytic circuits” (Nature, 2025)
# Chains of the proteins cited; added tags and fusions are not shown. Lines headed by an entry give the natural chain unless they say otherwise; changes in a name come on top.
# UniProt P23458: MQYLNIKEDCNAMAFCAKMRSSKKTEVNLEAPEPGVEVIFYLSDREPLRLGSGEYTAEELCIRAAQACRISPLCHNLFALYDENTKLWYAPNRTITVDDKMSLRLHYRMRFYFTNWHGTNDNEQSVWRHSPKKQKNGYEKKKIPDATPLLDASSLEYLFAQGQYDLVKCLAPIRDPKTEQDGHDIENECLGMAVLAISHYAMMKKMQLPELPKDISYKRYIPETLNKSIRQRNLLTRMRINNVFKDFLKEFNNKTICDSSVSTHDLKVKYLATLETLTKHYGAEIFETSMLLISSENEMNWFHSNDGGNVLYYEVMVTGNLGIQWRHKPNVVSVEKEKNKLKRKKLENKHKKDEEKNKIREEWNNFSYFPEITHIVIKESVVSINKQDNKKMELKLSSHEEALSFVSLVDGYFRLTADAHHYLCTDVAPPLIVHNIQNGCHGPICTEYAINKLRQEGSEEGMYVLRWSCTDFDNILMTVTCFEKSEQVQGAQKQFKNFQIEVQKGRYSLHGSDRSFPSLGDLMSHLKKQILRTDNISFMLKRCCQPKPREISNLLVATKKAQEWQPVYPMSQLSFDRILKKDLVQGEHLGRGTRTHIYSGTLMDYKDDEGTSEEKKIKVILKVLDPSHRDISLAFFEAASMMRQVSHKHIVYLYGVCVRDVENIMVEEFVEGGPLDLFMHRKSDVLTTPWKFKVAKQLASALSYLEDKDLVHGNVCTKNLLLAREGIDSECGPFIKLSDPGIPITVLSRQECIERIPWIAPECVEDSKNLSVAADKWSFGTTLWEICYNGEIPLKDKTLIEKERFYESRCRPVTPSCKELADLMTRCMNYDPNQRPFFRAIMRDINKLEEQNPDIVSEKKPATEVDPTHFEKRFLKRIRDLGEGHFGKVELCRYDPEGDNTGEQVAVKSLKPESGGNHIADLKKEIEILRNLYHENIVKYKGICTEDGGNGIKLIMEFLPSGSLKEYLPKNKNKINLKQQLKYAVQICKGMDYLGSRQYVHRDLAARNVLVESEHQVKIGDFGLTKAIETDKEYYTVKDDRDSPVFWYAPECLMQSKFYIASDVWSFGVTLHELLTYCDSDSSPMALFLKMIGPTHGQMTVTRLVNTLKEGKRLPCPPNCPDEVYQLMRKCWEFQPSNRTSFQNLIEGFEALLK
# UniProt P51813: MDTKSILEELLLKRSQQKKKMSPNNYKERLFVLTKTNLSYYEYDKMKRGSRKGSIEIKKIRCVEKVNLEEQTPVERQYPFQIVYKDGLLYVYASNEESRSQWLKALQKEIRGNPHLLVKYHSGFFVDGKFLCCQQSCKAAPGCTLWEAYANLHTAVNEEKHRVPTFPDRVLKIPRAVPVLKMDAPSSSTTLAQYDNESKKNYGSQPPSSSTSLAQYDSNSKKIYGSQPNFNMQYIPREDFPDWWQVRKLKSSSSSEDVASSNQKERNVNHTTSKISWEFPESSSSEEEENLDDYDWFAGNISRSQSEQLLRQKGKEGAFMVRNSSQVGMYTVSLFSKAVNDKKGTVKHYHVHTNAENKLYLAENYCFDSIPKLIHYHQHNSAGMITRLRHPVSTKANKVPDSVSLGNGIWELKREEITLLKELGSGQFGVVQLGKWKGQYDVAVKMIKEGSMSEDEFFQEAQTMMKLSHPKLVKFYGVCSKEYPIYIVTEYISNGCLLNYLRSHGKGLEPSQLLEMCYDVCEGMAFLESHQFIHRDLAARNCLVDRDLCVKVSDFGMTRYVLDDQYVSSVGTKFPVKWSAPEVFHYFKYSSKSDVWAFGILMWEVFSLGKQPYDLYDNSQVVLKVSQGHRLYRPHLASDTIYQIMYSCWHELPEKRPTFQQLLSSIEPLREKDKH
# UniProt P51451: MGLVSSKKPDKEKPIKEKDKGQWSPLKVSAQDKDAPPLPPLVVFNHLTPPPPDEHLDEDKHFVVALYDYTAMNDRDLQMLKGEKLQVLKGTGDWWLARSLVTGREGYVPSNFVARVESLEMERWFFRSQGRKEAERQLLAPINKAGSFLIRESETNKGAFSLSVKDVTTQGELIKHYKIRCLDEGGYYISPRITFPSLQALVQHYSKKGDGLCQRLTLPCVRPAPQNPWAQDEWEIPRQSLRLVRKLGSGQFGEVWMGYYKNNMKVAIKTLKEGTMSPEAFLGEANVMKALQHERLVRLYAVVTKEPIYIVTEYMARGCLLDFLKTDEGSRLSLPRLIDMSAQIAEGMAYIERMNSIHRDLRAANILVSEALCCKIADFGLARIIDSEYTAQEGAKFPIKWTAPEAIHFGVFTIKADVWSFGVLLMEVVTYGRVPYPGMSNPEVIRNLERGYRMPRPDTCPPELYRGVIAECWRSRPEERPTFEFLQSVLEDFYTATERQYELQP
# UniProt P07948: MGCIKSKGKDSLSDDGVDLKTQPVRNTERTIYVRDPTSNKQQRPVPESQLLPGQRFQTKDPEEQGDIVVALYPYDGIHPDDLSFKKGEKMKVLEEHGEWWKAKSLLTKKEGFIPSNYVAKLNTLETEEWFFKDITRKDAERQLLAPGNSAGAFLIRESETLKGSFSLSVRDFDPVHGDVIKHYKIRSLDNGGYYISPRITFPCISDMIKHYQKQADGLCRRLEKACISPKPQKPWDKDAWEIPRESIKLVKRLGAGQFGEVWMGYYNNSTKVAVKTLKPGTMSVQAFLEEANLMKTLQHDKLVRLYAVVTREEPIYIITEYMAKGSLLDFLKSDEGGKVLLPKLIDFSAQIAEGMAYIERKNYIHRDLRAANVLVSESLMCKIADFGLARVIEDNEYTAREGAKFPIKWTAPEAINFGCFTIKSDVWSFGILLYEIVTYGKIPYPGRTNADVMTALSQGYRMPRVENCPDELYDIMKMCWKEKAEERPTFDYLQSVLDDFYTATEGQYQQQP
# UniProt P36888, whole entry: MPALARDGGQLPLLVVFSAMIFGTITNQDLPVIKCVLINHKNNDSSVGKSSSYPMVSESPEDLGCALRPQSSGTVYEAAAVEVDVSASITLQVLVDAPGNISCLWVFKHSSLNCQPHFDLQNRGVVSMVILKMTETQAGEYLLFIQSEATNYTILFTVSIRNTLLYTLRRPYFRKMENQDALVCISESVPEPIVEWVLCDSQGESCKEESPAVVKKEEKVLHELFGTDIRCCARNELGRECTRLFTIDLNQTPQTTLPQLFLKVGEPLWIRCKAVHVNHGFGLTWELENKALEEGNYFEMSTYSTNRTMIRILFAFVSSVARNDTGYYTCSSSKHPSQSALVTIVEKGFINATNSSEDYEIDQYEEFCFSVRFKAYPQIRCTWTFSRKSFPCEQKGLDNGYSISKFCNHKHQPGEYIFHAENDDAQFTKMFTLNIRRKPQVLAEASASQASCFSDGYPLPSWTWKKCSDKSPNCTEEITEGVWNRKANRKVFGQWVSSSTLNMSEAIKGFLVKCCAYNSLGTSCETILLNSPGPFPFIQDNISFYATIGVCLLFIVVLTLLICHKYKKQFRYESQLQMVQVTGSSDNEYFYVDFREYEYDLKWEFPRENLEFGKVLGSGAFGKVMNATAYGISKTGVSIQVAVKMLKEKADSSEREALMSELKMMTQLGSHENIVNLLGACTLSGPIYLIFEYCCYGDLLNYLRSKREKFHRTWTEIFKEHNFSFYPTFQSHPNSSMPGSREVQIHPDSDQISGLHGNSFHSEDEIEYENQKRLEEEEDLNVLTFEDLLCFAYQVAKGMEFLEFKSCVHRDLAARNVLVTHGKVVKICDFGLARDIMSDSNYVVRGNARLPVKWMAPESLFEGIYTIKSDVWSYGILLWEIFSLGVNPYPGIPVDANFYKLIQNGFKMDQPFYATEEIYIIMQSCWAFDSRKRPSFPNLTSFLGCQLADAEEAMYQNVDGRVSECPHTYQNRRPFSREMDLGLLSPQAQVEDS
# UniProt O96013: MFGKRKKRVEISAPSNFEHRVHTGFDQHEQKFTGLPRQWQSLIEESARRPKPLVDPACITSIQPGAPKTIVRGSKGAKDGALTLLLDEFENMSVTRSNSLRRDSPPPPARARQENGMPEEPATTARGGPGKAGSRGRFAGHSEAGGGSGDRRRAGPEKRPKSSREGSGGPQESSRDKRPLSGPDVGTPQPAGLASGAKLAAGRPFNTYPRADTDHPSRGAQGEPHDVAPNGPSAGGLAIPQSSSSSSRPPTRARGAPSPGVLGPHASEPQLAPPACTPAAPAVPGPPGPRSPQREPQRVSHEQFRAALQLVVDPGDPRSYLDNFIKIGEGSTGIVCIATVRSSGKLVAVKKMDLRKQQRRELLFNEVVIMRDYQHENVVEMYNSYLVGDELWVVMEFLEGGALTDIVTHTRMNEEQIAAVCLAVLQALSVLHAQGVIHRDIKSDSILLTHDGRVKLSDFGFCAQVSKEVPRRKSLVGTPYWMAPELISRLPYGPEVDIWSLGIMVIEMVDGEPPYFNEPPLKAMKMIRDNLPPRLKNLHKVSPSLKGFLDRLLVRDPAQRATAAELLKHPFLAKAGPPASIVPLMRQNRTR
# UniProt P49137, whole entry, looked up: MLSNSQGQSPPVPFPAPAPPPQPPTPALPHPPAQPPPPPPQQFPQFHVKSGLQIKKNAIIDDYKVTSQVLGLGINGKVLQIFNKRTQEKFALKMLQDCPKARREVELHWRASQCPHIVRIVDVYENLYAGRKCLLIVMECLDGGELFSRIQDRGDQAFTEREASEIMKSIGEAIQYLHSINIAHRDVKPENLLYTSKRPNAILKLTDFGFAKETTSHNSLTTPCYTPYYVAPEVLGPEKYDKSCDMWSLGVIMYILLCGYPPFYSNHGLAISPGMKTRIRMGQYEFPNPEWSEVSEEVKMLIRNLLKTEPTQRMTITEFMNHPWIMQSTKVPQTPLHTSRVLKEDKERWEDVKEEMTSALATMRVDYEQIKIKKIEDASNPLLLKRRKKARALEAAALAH
# UniProt P43403: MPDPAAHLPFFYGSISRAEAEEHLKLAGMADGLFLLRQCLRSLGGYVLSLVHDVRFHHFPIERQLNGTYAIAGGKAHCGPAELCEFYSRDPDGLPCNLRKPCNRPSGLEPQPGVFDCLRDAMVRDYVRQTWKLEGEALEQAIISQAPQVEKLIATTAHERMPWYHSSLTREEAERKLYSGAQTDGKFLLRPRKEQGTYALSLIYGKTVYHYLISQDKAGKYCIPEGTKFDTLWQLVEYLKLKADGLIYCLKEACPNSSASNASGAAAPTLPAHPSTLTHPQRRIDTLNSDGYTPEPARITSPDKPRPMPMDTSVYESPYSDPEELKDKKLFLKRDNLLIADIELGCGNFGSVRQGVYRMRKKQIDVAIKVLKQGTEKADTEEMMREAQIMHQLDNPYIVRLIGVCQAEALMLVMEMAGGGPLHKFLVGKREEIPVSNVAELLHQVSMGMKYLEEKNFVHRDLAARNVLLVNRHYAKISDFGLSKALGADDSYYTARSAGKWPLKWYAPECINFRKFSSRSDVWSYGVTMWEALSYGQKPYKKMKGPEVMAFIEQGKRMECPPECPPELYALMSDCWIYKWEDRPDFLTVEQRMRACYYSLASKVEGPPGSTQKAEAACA
# UniProt P10398: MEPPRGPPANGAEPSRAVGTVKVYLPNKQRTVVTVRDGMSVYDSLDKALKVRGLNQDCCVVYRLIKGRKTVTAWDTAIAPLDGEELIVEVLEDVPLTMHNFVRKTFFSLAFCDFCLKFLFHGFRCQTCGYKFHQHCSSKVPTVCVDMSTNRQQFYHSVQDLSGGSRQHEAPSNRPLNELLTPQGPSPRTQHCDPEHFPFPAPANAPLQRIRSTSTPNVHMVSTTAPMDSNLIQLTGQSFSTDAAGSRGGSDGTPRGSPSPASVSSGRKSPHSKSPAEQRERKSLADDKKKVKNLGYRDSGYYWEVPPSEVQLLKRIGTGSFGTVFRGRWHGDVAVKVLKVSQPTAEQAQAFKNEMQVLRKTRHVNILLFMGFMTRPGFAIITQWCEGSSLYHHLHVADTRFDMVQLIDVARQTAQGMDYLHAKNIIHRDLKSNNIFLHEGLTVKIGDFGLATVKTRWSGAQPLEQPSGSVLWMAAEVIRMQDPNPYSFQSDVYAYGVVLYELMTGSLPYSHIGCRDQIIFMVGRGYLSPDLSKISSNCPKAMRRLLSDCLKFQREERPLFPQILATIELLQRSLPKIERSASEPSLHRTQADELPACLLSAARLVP
# UniProt P06241, whole entry, looked up: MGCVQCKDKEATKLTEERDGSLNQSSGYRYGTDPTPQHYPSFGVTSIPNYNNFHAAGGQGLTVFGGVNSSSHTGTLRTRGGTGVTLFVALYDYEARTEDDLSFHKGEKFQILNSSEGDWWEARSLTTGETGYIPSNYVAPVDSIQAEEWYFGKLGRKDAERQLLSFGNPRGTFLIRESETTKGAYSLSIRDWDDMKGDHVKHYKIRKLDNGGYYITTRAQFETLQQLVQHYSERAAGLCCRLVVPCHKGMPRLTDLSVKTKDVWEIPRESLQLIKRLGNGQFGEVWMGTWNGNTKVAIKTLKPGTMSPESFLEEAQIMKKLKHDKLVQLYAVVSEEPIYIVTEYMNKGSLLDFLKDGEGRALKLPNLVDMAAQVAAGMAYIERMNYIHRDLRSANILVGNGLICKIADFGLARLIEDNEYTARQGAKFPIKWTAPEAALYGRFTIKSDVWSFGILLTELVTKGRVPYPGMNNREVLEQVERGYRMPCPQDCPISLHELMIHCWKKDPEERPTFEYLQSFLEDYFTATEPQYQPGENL
# The list shows a part of the results. The calls rarely recur for the same compound in another form.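 Kinases, fused to nanoluciferase, were expressed in K562 cells; luminescence was measured every 4 h from 2 to 18 h as percent of control (DMSO = 100%, positive control = 0%). A time point is decreased if signal falls significantly (2 sigma). Hits were called by the authors by a rule that is not shown; the count of time points alone does not decide it.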
# What was measured:
# Assay in all cases: number of time points (of 5) at which kinase-Nluc abundance scored as decreased, DMSO-normalised (count); higher = more persistent destabilization
# [1] = compound: CC(=O)Nc1cccc(-n2c(=O)n(C3CC3)c(=O)c3c(Nc4ccc(I)cc4F)n(C)c(=O)c(C)c32)c1 [Trametinib]; conditions: 10 µM; K562; 2-18 h
# [2] = compound: CC(=O)c1c(C)c2cnc(Nc3ccc(N4CCNCC4)cn3)nc2n(C2CCCC2)c1=O [Palbociclib (isethionate)]; conditions: 10 µM; K562; 2-18 h
# [3] = compound: CC(=O)c1c(C)c2cnc(Nc3ccc(N4CCNCC4)cn3)nc2n(C2CCCC2)c1=O [Palbociclib (monohydrochloride)]; conditions: 10 µM; K562; 2-18 h
# [4] = compound: CC(C)(C)n1nc(-c2cccc3ccccc23)c2c(N)ncnc21 [1-Naphthyl PP1 (hydrochloride)]; conditions: 10 µM; K562; 2-18 h
# [5] = compound: CC(C)(C)n1nc(-c2cccc3ccccc23)c2c(N)ncnc21 [1-Naphthyl PP1]; conditions: 10 µM; K562; 2-18 h
# [6] = compound: CC(C)NC[C@@H](C(=O)N1CCN(c2ncnc3c2[C@H](C)C[C@H]3O)CC1)c1ccc(Cl)cc1 [Ipatasertib (dihydrochloride)]; conditions: 10 µM; K562; 2-18 h
# [7] = compound: CC(C)NC[C@@H](C(=O)N1CCN(c2ncnc3c2[C@H](C)C[C@H]3O)CC1)c1ccc(Cl)cc1 [Ipatasertib]; conditions: 10 µM; K562; 2-18 h
# [8] = compound: CC(C)Nc1cc(-c2c[nH]c(C(=O)N[C@H](CO)c3cccc(Cl)c3)c2)c(Cl)cn1 [Ulixertinib (hydrochloride)]; conditions: 10 µM; K562; 2-18 h
# [9] = compound: CC(C)Nc1cc(-c2c[nH]c(C(=O)N[C@H](CO)c3cccc(Cl)c3)c2)c(Cl)cn1 [Ulixertinib]; conditions: 10 µM; K562; 2-18 h
# [10] = compound: CC(C)Oc1ccc(-c2nn([C@@H](C)c3oc4ccc(F)cc4c(=O)c3-c3cccc(F)c3)c3ncnc(N)c23)cc1F [Umbralisib (hydrochloride)]; conditions: 2.5 µM; K562; 2-18 h
# [11] = compound: CC(C)Oc1ccc(-c2nn([C@@H](C)c3oc4ccc(F)cc4c(=O)c3-c3cccc(F)c3)c3ncnc(N)c23)cc1F [Umbralisib]; conditions: 2.5 µM; K562; 2-18 h
# [12] = compound: CCCC(=O)Nc1ncnc2c1ncn2[C@@H]1O[C@@H]2COP(=O)(O)O[C@H]2[C@H]1OC(=O)CCC [Bucladesine (calcium)]; conditions: 10 µM; K562; 2-18 h
# [13] = compound: CCCC(=O)Nc1ncnc2c1ncn2[C@@H]1O[C@@H]2COP(=O)(O)O[C@H]2[C@H]1OC(=O)CCC [Bucladesine (sodium)]; conditions: 10 µM; K562; 2-18 h
# [14] = compound: CCCCCCCCc1ccc(CCC(N)(CO)CO)cc1 [Fingolimod (hydrochloride)]; conditions: 2.5 µM; K562; 2-18 h
# [15] = compound: CCCCCCCCc1ccc(CCC(N)(CO)CO)cc1 [Fingolimod]; conditions: 2.5 µM; K562; 2-18 h
# [16] = compound: CCN(CC)CC(=O)Nc1c(C)cccc1C [Lidocaine (hydrochloride)]; conditions: 10 µM; K562; 2-18 h
# [17] = compound: CCN(CC)CC(=O)Nc1c(C)cccc1C [Lidocaine]; conditions: 10 µM; K562; 2-18 h
# [18] = compound: CCN(CC)Cc1ccc(OC)c(-c2cc3c(-c4ccc(C(=O)O)c(C(C)C)c4)ccnc3[nH]2)c1; conditions: K562, 2-18 h
# [19] = compound: CCS(=O)(=O)N1CC(CC#N)(n2cc(-c3ncnc4[nH]ccc34)cn2)C1 [Baricitinib (phosphate)]; conditions: 10 µM; K562; 2-18 h
# [20] = compound: CCS(=O)(=O)N1CC(CC#N)(n2cc(-c3ncnc4[nH]ccc34)cn2)C1 [Baricitinib]; conditions: 10 µM; K562; 2-18 h
Target,number of time points [1],number of time points [2],number of time points [3],number of time points [4],number of time points [5],number of time points [6],number of time points [7],number of time points [8],number of time points [9],number of time points [10],number of time points [11],number of time points [12],number of time points [13],number of time points [14],number of time points [15],number of time points [16],number of time points [17],number of time points ([18]; 2.5 µM),number of time points ([18]; 10 µM),number of time points [19],number of time points [20]
JAK1 (UniProt P23458),0,4,0,0,0,0,0,0,0,0,0,0,0,0,0,0,0,0,0,,
BMX (UniProt P51813),2,3,0,0,0,0,0,0,0,0,0,0,0,0,0,0,0,0,0,0,0
ZAK (UniProt Q9NYL2),0,0,0,0,0,0,0,0,0,0,0,0,0,0,0,0,0,0,0,0,0
BLK (UniProt P51451),0,0,0,0,0,0,0,0,0,0,0,0,0,1,0,0,0,0,0,0,0
CDK2 (UniProt P24941),4,0,0,0,0,0,0,0,0,0,0,0,0,0,0,0,0,0,0,0,0
LYN (UniProt P07948),0,0,0,0,0,0,0,0,0,0,0,0,0,0,0,0,0,0,0,0,0
HER2 (UniProt P04626),0,0,0,0,0,0,0,0,0,0,0,0,0,0,0,0,0,0,0,0,0
TEC (UniProt P42680),0,2,0,0,0,0,2,0,0,0,0,0,0,0,0,0,0,1,0,0,0
ERBB4_R711C (clone: ERBB4_mut) (UniProt Q15303),0,4,1,0,0,0,0,0,0,0,0,0,0,0,0,0,0,0,0,0,0
NTRK3 (UniProt Q16288),0,0,0,0,0,0,0,0,0,0,0,0,0,0,0,0,0,0,0,0,0
ULK3 (UniProt Q6PHR2),0,1,0,0,0,0,0,1,0,0,0,0,0,1,0,0,0,0,0,0,0
FLT3 (UniProt P36888),0,4,0,0,0,0,0,0,0,0,0,0,0,0,0,0,0,0,0,0,0
PLK1 (UniProt P53350),0,0,0,0,0,0,0,0,0,0,0,0,0,0,0,0,0,0,0,0,0
PAK4 (UniProt O96013),0,0,0,0,0,0,0,0,0,0,0,0,0,0,0,0,0,0,0,0,0
EGFR_T790M (UniProt P00533),0,0,0,0,0,0,0,0,0,0,0,0,0,0,0,0,0,0,0,0,0
SYK (UniProt P43405),0,0,0,0,0,0,0,0,0,0,0,0,0,0,0,0,0,0,0,0,0
FGFR3 (UniProt P22607),0,0,0,0,0,0,0,0,0,0,0,0,0,0,0,0,0,0,0,0,0
EGFR_G719S_T790M (UniProt P00533),0,3,0,0,0,0,0,0,0,0,0,0,0,0,0,0,0,0,0,0,0
PDGFRB (UniProt P09619),1,0,0,0,0,0,0,0,0,0,0,0,0,0,0,0,0,0,0,0,0
MAPKAPK2 (UniProt P49137),0,0,0,0,0,0,0,0,0,0,0,0,0,0,0,0,0,0,0,0,0
RPS6KA1 (UniProt Q15418),0,0,0,0,0,0,0,0,0,0,0,0,0,0,0,0,0,0,0,0,0
ZAP70 (UniProt P43403),0,0,0,0,0,0,0,0,0,0,0,0,0,0,0,0,0,0,0,0,0
ARAF (UniProt P10398),0,0,0,0,0,0,0,0,0,0,0,0,0,0,0,0,0,0,0,0,0
FGR (UniProt P09769),0,0,0,0,0,0,0,0,0,0,0,0,0,0,0,0,0,0,0,0,0
BRAF (UniProt P15056),5,0,0,0,0,0,0,0,0,0,0,0,0,0,0,0,0,0,0,0,0
GSK3A (UniProt P49840),1,0,0,0,0,0,0,0,0,0,0,0,0,0,0,0,0,0,0,0,0
EGFR_G719S (UniProt P00533),3,1,0,0,0,0,0,0,0,0,0,0,0,0,0,0,0,0,0,0,0
PTK2B (UniProt Q14289),0,0,0,0,0,0,0,0,0,0,0,0,0,0,0,0,0,0,0,0,0
FYN (UniProt P06241),0,0,0,0,0,0,0,0,0,0,0,0,0,0,0,0,0,0,0,0,0

# Copied from the list.
# Entry for CDK2 (UniProt P24941) under number of time points [3]: 0
# Entry for ULK3 (UniProt Q6PHR2) under number of time points [10]: 0
